Patent US20250375441A1, “ONCOLYTIC THERAPY WITH A DUAL HDAC3 AND HDAC8 TARGETING AGENT” (priority 2024, published 2025)
For at least one compound, name, drawing or mass did not settle the structure.

Test system: EBV-positive HH514-16 Burkitt lymphoma cell line
Details: HH514-16, tazemetostat 4 hours then DMSO (0.1%) 24 hours, N=3

CCN(c1cc(-c2ccc(CN3CCOCC3)cc2)cc(C(=O)NCc2c(C)cc(C)[nH]c2=O)c1C)C1CCOCC1 [tazemetostat]
cells expressing ZEBRA, vs background level of spontaneous expression: did not induce beyond the background level
